The target of this assay is T1, FLAG-tagged WT full-length DCAF13 (DDB1- and CUL4-associated factor 13) (UniProt Q9NV06).
T1 sequence: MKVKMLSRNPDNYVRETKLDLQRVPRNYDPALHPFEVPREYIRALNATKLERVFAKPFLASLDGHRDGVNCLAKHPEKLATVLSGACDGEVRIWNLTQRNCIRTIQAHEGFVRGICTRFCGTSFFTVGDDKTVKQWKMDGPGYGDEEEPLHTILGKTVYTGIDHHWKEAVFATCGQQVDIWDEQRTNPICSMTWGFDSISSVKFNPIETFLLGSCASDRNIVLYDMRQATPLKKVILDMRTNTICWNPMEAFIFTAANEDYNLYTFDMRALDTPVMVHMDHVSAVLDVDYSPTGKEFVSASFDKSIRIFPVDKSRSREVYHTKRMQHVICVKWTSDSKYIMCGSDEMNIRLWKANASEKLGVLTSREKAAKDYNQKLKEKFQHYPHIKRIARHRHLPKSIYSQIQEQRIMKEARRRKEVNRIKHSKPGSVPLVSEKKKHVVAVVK
As to the kind of experiment: affinity purification with mass spectrometry; lysate of A549 cells transfected with FLAG-DCAF13; anti-FLAG antibody on Protein A/G magnetic beads, overnight at 4 °C, 10 washes with PBS + 0.5% Tween-20; SDS-PAGE, LC-MS/MS; IgG as control.

The text below walks through data of article PMC12514575.

Results are given in words; binding and its absence hold for the method and conditions named. Binding seen in cells or lysates may run through a third protein. These calls come from enrichment with a bait or labelling near it, and not all partners need be listed. Tags and fused reporters may be left off the sequences shown.

B1: TAF1A, a subunit of selective factor 1 (SL1) (protein, UniProt Q15573 1-450)
chain: MSDFSEELKGPVTDDEEVETSVLSGAGMHFPWLQTYVETVAIGGKRRKDFAQTTSACLSFIQEALLKHQWQQAAEYMYSYFQTLEDSDSYKRQAAPEIIWKLGSEILFYHPKSNMESFNTFANRMKNIGVMNYLKISLQHALYLLHHGMLKDAKRNLSEAETWRHGENTSSREILINLIQAYKGLLQYYTWSEKKMELSKLDKDDYAYNAVAQDVFNHSWKTSANISALIKIPGVWDPFVKSYVEMLEFYGDRDGAQEVLTNYAYDEKFPSNPNAHIYLYNFLKRQKAPRSKLISVLKILYQIVPSHKLMLEFHTLLRKSEKEEHRKLGLEVLFGVLDFAGCTKNITAWKYLAKYLKNILMGNHLAWVQEEWNSRKNWWPGFHFSYFWAKSDWKEDTALACEKAFVAGLLLGKGCRYFRYILKQDHQILGKKIKRMKRSVKKYSIVNPRL
With B1, the binding entry is recorded as “binds”.
